{"source": "PubChem BioAssay AID330", "about": "(DTP/NCI, 2004)", "system": "P388 leukemia ip, CD2F1 mice, survival T/C", "assay": "NCI In Vivo Anticancer Drug Screen. Data for tumor model P388 Leukemia (intraperitoneal) in CD2F1 (CDF1) mice", "conditions": "T/C endpoint: median survival time, higher T/C = longer survival", "key": {"[1]": {"conditions": "dose: 240.0 mg/kg/injection, schedule: Q01DX005 (ip), vehicle: saline"}, "[2]": {"conditions": "dose: 50.0 mg/kg/injection, schedule: Q04DX002 (ip), vehicle: saline with Tween-80"}, "[3]": {"conditions": "dose: 100.0 mg/kg/injection, schedule: Q04DX003 (ip), vehicle: saline with Tween-80"}, "[4]": {"conditions": "dose: 400.0 mg/kg/injection, schedule: Q04DX003 (ip), vehicle: saline with Tween-80"}}, "note": "The list is a part of this screen's results and no random one: it gathers tests that were run many times, whatever their T/C, doses with no T/C, and many T/C values between a quarter and a half above the control. Other doses and runs of a compound stand elsewhere. T/C: endpoint of the treated group in % of that of the vehicle group. Some doses have a count of surviving animals in place of a T/C: the source files T/C as zero there, which appears to mark a toxic dose or a test without result, not a measured value. Some survivor counts are full or nearly so, which does not show that the dose was tolerated: survival well below the control is almost never listed, so the zero probably covers shortened survival too. Counts of survivors are from the toxicity check (mostly the fifth day) where no day follows; animals may have died later. Schedules are NCI's codes, taken here to give the interval after Q, in days (D) or hours (H), and the number of doses after X. Some entries were tested several times; the results are listed from low to high. For survival time, this PubChem deposit counts one and a half times the control or more as active, and values a quarter to a half above the control carry no call in these data; other NCI protocols may use other cut-offs. Brackets with × say how often a value occurs here. Some T/C values carry the count of animals alive at the toxicity check (mostly the fifth day); without a count, all were alive then.", "data": [{"smiles": "C/C=C1\\CN2CCc3c([nH]c4ccccc34)C2CC1C1=CN2c3ccccc3C34CCN5CC6=CCOC1C(C6CC53)C24", "note": "(stereo unspecified)", "values": [{"measurement": "survivor count", "setting": "dose: 19.0 mg/kg/injection, schedule: Q01DX005 (ip), vehicle: Klucel (hydroxypropylcellulose) (HPC)", "value": "6 of 6"}]}, {"smiles": "OO.OO.[Cr+3].[NH-]CC[N-]CC[NH-]", "values": [{"measurement": "survivor count", "setting": "dose: 200.0 mg/kg/injection, schedule: Q01DX009 (ip), vehicle: saline with Tween-80", "value": "3 of 6"}]}, {"smiles": "CC(C)N(C(C)C)P1N(C(C)(C)C)N=NN1C(C)(C)C", "values": [{"measurement": "survivor count", "setting": "dose: 100.0 mg/kg/injection, schedule: Q01DX005 (ip), vehicle: Klucel (hydroxypropylcellulose) (HPC)", "value": "2 of 6"}, {"measurement": "survivor count", "setting": "dose: 200.0 mg/kg/injection, schedule: Q01DX005 (ip), vehicle: Klucel (hydroxypropylcellulose) (HPC)", "value": "0 of 6"}]}, {"smiles": "COc1cccc2cc3c(NCCCN(C)C)nnc(NCCCN(C)C)c3cc12", "values": [{"measurement": "survivor count", "setting": "dose: 30.0 mg/kg/injection, schedule: Q01DX005 (ip), vehicle: saline", "value": "0 of 6"}, {"measurement": "survivor count", "setting": "dose: 60.0 mg/kg/injection, schedule: Q01DX005 (ip), vehicle: saline", "value": "0 of 6"}, {"measurement": "survivor count", "setting": "dose: 120.0 mg/kg/injection, schedule: Q01DX005 (ip), vehicle: saline", "value": "0 of 6"}, {"measurement": "survivor count", "setting": "[1]", "value": "0 of 6"}]}, {"smiles": "CN(C)CCCN=C(N)CSP(=O)(O)O", "values": [{"measurement": "survivor count", "setting": "[1]", "value": "2 of 6"}]}, {"smiles": "CC(=O)Oc1ccc(OC(C)=O)c2c(OC(C)=O)c(C(CC=C(C)C)OC(C)=O)cc(OC(C)=O)c12", "note": "(stereo unspecified)", "values": [{"measurement": "survivor count", "setting": "[2]", "value": "5 of 6"}]}, {"smiles": "Cc1ccc(S(=O)(=O)OCOS(=O)(=O)c2ccc(C)cc2)cc1", "values": [{"measurement": "T/C", "setting": "dose: 200.0 mg/kg/injection, schedule: Q01DX009 (ip), vehicle: Klucel (hydroxypropylcellulose) (HPC)", "value": "149 % of control"}]}, {"smiles": "COc1cc2cc3c4cc(OC)c(OC)cc4cc[n+]3c(C)c2cc1OC", "values": [{"measurement": "T/C", "setting": "dose: 25.0 mg/kg/injection, schedule: Q04DX003 (ip), vehicle: other", "value": "134, 135, 140 % of control"}, {"measurement": "T/C", "setting": "dose: 50.0 mg/kg/injection, schedule: Q04DX003 (ip), vehicle: other", "value": "131 % of control"}, {"measurement": "T/C", "setting": "dose: 100.0 mg/kg/injection, schedule: Q04DX003 (ip), vehicle: saline sonified", "value": "137 % of control (3×)"}, {"measurement": "T/C", "setting": "[3]", "value": "133 % of control [5 of 6 alive]"}, {"measurement": "survivor count", "setting": "dose: 200.0 mg/kg/injection, schedule: Q01DX009 (ip), vehicle: other", "value": "6 of 6"}, {"measurement": "T/C", "setting": "dose: 200.0 mg/kg/injection, schedule: Q04DX003 (ip), vehicle: saline sonified", "value": "137 % of control (3×)"}, {"measurement": "T/C", "setting": "dose: 200.0 mg/kg/injection, schedule: Q04DX003 (ip), vehicle: saline with Tween-80", "value": "137 % of control"}, {"measurement": "survivor count", "setting": "dose: 400.0 mg/kg/injection, schedule: Q01DX009 (ip), vehicle: other", "value": "3 of 6 and 5 of 6"}, {"measurement": "T/C", "setting": "[4]", "value": "141 % of control"}, {"measurement": "T/C", "setting": "dose: 800.0 mg/kg/injection, schedule: Q04DX003 (ip), vehicle: saline with Tween-80", "value": "129 % of control"}]}, {"smiles": "O=[N+]([O-])c1cccc2c1c([N+](=O)[O-])cc[n+]2[O-]", "values": [{"measurement": "survivor count", "setting": "[2]", "value": "5 of 6"}, {"measurement": "survivor count", "setting": "dose: 100.0 mg/kg/injection, schedule: Q04DX002 (ip), vehicle: saline with Tween-80", "value": "0 of 6"}, {"measurement": "survivor count", "setting": "dose: 200.0 mg/kg/injection, schedule: Q04DX002 (ip), vehicle: saline with Tween-80", "value": "0 of 6"}]}, {"smiles": "CCCC(=O)OCC1OC(n2cnc3c(=S)nc(N)[nH]c32)C(OC(=O)CCC)C1OC(=O)CCC", "note": "(stereo unspecified)", "values": [{"measurement": "T/C", "setting": "dose: 5.0 mg/kg/injection, schedule: Q04DX003 (ip), vehicle: saline with Tween-80", "value": "140 % of control"}, {"measurement": "survivor count", "setting": "dose: 100.0 mg/kg/injection, schedule: Q01DX009 (ip), vehicle: saline with Tween-80", "value": "5 of 6"}, {"measurement": "T/C", "setting": "[3]", "value": "125 and 140 % of control"}, {"measurement": "survivor count", "setting": "[4]", "value": "5 of 6"}]}, {"smiles": "CSC(=N)c1cccc(OCCOc2ccccc2)c1", "values": [{"measurement": "survivor count", "setting": "dose: 60.0 mg/kg/injection, schedule: Q01DX005 (ip), vehicle: Klucel (hydroxypropylcellulose) (HPC)", "value": "5 of 6"}]}, {"smiles": "O=C1OCCC(O)=C1C=NCc1ccccc1", "values": [{"measurement": "survivor count", "setting": "dose: 200.0 mg/kg/injection, schedule: Q04DX003 (ip), vehicle: Klucel (hydroxypropylcellulose) (HPC)", "value": "6 of 6"}, {"measurement": "survivor count", "setting": "dose: 400.0 mg/kg/injection, schedule: Q04DX003 (ip), vehicle: Klucel (hydroxypropylcellulose) (HPC)", "value": "5 of 6"}]}, {"smiles": "COc1cc(C(O)C2C(=O)OCC2C2(c3ccc4c(c3)OCO4)SCCCS2)cc(OC)c1OC", "note": "(stereo unspecified)", "values": [{"measurement": "survivor count", "setting": "dose: 400.0 mg/kg/injection, schedule: Q01DX001 (ip), vehicle: saline with Tween-80", "value": "3 of 6"}]}, {"smiles": "COc1cc(C2CC(C)(N3CCCC3)Oc3cc4c(cc32)OCO4)cc(OC)c1OC", "note": "(stereo unspecified)", "values": [{"measurement": "survivor count", "setting": "dose: 30.0 mg/kg/injection, schedule: Q01DX005 (ip), vehicle: Klucel (hydroxypropylcellulose) (HPC)", "value": "6 of 6"}, {"measurement": "T/C", "setting": "dose: 120.0 mg/kg/injection, schedule: Q01DX005 (ip), vehicle: Klucel (hydroxypropylcellulose) (HPC)", "value": "125 and 138 % of control"}, {"measurement": "survivor count", "setting": "dose: 240.0 mg/kg/injection, schedule: Q01DX005 (ip), vehicle: Klucel (hydroxypropylcellulose) (HPC)", "value": "6 of 6"}]}, {"smiles": "C1COCCOCCOCCO1.[Cl][Sn]([Cl])([Cl])[Cl]", "values": [{"measurement": "survivor count", "setting": "dose: 400.0 mg/kg/injection, schedule: Q01DX001 (ip), vehicle: Klucel (hydroxypropylcellulose) (HPC)", "value": "0 of 6"}]}]}
